Assay results reported in US12655174B2, “Adenosine A3 receptor agonists, preparation methods and uses thereof” (ZHEJIANG VIMGREEN PHARMACEUTICALS, LTD., priority 2020, dated 2026).

By UniProt entry, the sequences of proteins in these tests, tags left out.
UniProt P0DMS8, whole entry: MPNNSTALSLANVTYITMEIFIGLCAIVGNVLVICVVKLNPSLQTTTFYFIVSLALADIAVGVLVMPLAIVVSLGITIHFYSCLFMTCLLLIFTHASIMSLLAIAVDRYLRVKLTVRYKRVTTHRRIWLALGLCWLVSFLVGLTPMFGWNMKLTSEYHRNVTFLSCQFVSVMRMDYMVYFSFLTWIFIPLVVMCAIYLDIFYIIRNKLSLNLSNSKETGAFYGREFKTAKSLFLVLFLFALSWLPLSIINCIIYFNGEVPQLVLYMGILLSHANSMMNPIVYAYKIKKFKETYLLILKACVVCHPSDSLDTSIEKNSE

Biological target: ADORA3 receptor (Homo sapiens, UniProt P0DMS8)
Assay: Agonistic effect on adenosine A3 receptor by FLIPR assay (calcium flux assay)
Assay type: cell-based
Details: agonist mode

EC50: 0.0194 µM
Compound: CNC(=O)[C@H]1O[C@@H](n2cnc3c(NCc4cc(C)cc(C)c4)nc(-c4cncc(F)c4)nc32)[C@H](O)[C@@H]1O

Structures were worked out from names or drawings and are uncertain.
